Source: PubChem BioAssay AID652243 (Drosophila RNAi Screening Center, 2013)
Purpose: 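Fly genes required for human androgen receptor driven transcription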 (primary screen). Cells: Drosophila S2R+ cells. Knock-down reagent: long dsRNA against Drosophila genes. Duration: 72 h (48 h, then 24 h hormone). Conditions: synthetic androgen R1881 at 10 nM for 24 h. Read-out: 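Per-well raw luminescence of the androgen-driven firefly reporter and of the Renilla control, two replicates each, without normalisation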. Scale: firefly reporter light: higher = more light from androgen-responsive reporter; Renilla control light: higher = more constitutive control signal (cell number, transfection). Active means: 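Across duplicate plates, a knock-down whose log firefly/Renilla ratio shifted a set fold down or up from the GFP/LacZ control mean was a hit; the downward cut appears as both 1.5 and 3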. Meaning of the calls: active = hit: reporter lowered or raised; inactive = no hit.
The deposit covers about 24,000 reagents; below is a random part of those with a known target gene and a result. In the full data, 246 (1%) were called active. 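Plates not normalised; calls are printed but the firefly/Renilla ratio behind them is not deposited; fold cut for lowering reported inconsistently.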 The raw values are shown without normalisation. Reagents against one gene are numbered here. The record does not give: the amount of reagent.

For msl-2 #1, what does the deposit list?
firefly reporter light, replicate 1: 7.11e5; firefly reporter light, replicate 2: 9.65e5; Renilla control light, replicate 1: 3.78e6; Renilla control light, replicate 2: 2.50e6; Call: inactive

With msl-2 #2, what does the deposit list?
firefly reporter light, replicate 1: 6.05e5; firefly reporter light, replicate 2: 5.05e5; Renilla control light, replicate 1: 1.12e6; Renilla control light, replicate 2: 9.24e5; Call: inactive

For Fum3 #1, what was measured?
firefly reporter light, replicate 1: 1.74e5; firefly reporter light, replicate 2: 1.28e5; Renilla control light, replicate 1: 1.71e6; Renilla control light, replicate 2: 1.46e6; Call: inactive

For Fum3 #2, how do the results read?
firefly reporter light, replicate 1: 5.48e5; firefly reporter light, replicate 2: 5.56e5; Renilla control light, replicate 1: 7.04e5; Renilla control light, replicate 2: 7.61e5; Call: inactive

What is on record for mRpL4?
firefly reporter light, replicate 1: 9.90e5; firefly reporter light, replicate 2: 9.19e5; Renilla control light, replicate 1: 2.02e6; Renilla control light, replicate 2: 1.63e6; Call: inactive

With eIF2Bbeta #1, what does the deposit list?
firefly reporter light, replicate 1: 3.05e5; firefly reporter light, replicate 2: 2.72e5; Renilla control light, replicate 1: 3.52e6; Renilla control light, replicate 2: 3.57e6; Call: inactive

How did the screen score eIF2Bbeta #2?
firefly reporter light, replicate 1: 2.69e5; firefly reporter light, replicate 2: 6.23e5; Renilla control light, replicate 1: 6.34e5; Renilla control light, replicate 2: 1.44e6; Call: inactive

For PIG-Q, how do the results read?
firefly reporter light, replicate 1: 2.76e5; firefly reporter light, replicate 2: 3.11e5; Renilla control light, replicate 1: 3.09e5; Renilla control light, replicate 2: 2.82e5; Call: inactive

How did the screen score beat-IIIa #1?
firefly reporter light, replicate 1: 1.76e5; firefly reporter light, replicate 2: 2.02e5; Renilla control light, replicate 1: 5.45e5; Renilla control light, replicate 2: 4.42e5; Call: inactive

How did the screen score beat-IIIa #2?
firefly reporter light, replicate 1: 2.07e5; firefly reporter light, replicate 2: 2.64e5; Renilla control light, replicate 1: 2.32e6; Renilla control light, replicate 2: 2.89e6; Call: inactive

Looked up above:
Entry of msl-2 #2 in “firefly reporter light, replicate 2”: 5.05e5
msl-2 #1, Renilla control light, replicate 1 = 3.78e6
Result for Fum3 #1 in “Renilla control light, replicate 2”: 1.46e6

Further results:
With CG33127, what was measured?
firefly reporter light, replicate 1: 1.43e5; firefly reporter light, replicate 2: 75266; Renilla control light, replicate 1: 4.74e5; Renilla control light, replicate 2: 2.63e5; Call: inactive

What did the screen give for CG15545 #1?
firefly reporter light, replicate 1: 2.10e5; firefly reporter light, replicate 2: 1.90e5; Renilla control light, replicate 1: 1.91e6; Renilla control light, replicate 2: 2.92e6; Call: inactive

With CG15545 #2, what does the deposit list?
firefly reporter light, replicate 1: 3.26e5; firefly reporter light, replicate 2: 2.96e5; Renilla control light, replicate 1: 8.38e5; Renilla control light, replicate 2: 8.38e5; Call: inactive

For HisCl1, what does the deposit list?
firefly reporter light, replicate 1: 73821; firefly reporter light, replicate 2: 1.11e5; Renilla control light, replicate 1: 5.51e5; Renilla control light, replicate 2: 4.92e5; Call: inactive

With CG17097 #1, what was measured?
firefly reporter light, replicate 1: 2.17e5; firefly reporter light, replicate 2: 1.86e5; Renilla control light, replicate 1: 1.37e6; Renilla control light, replicate 2: 1.42e6; Call: inactive

What is on record for CG17097 #2?
firefly reporter light, replicate 1: 8.36e5; firefly reporter light, replicate 2: 8.08e5; Renilla control light, replicate 1: 1.12e6; Renilla control light, replicate 2: 1.09e6; Call: inactive

What is on record for CG31300 #1?
firefly reporter light, replicate 1: 1.55e5; firefly reporter light, replicate 2: 1.90e5; Renilla control light, replicate 1: 1.89e6; Renilla control light, replicate 2: 2.19e6; Call: inactive

Which result is listed for CG31300 #2?
firefly reporter light, replicate 1: 6.66e5; firefly reporter light, replicate 2: 6.13e5; Renilla control light, replicate 1: 8.43e5; Renilla control light, replicate 2: 8.02e5; Call: inactive

With lok #1, how do the results read?
firefly reporter light, replicate 1: 7.95e5; firefly reporter light, replicate 2: 7.21e5; Renilla control light, replicate 1: 1.36e6; Renilla control light, replicate 2: 2.05e6; Call: inactive

For lok #2, what does the deposit list?
firefly reporter light, replicate 1: 2.56e5; firefly reporter light, replicate 2: 4.16e5; Renilla control light, replicate 1: 5.61e5; Renilla control light, replicate 2: 7.29e5; Call: inactive

What did the screen give for lok #3?
Call: inactive
